{"source": "PubChem BioAssay AID1159578 (Peter MacCallum Cancer Centre, 2015)", "test": "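siRNA pools altering how lymphatic endothelial cells close a scratch wound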 (primary screen)", "cell system": "human lymphatic endothelial cells", "reagents": "siRNA pool against human genes, 40 nM", "duration": "48 h after transfection", "measured": "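High-content imaging of dye-stained cells in a scratch assay measures filled wound area and nuclei per well; duplicate means given as ratio to mock and robust z-score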", "scale": "migration robust z-score: higher = faster migration into the scratch; nuclei per well: higher = more cells in the well", "rule for the call": "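Migration changed when robust z exceeds 2 or falls below -2 and mean nuclei number is at least 3300; otherwise not called changed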", "calls": "active = migration changed; inactive = no migration change, or too few cells", "note": "This is a random part of about 18,000 reagents. About 1,030 of all reagents (5.7%) were called active. 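Inactive calls also include pools with fewer than 3300 nuclei, whose migration was not assessed.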 The raw values are shown without normalisation. Not all columns of the deposit are shown. Reagent sequences are not shown."}
{"Gene": "STK4", "migration robust z-score": -0.26, "nuclei per well, duplicate mean": 4825, "Outcome": "inactive"}
{"Gene": "HOXA4", "migration robust z-score": -0.91, "nuclei per well, duplicate mean": 6289, "Outcome": "inactive"}
{"Gene": "JPH2", "migration robust z-score": -1, "nuclei per well, duplicate mean": 5750, "Outcome": "inactive"}
{"Gene": "OR9Q2", "migration robust z-score": 0.81, "nuclei per well, duplicate mean": 4818, "Outcome": "inactive"}
{"Gene": "SPMIP9", "migration robust z-score": 2.21, "nuclei per well, duplicate mean": 6096, "Outcome": "active"}
{"Gene": "SPINT2", "migration robust z-score": 0.24, "nuclei per well, duplicate mean": 7826, "Outcome": "inactive"}
{"Gene": "TRAF4", "migration robust z-score": 1.45, "nuclei per well, duplicate mean": 5396, "Outcome": "inactive"}
{"Gene": "GOLPH3L", "migration robust z-score": 1.19, "nuclei per well, duplicate mean": 5523, "Outcome": "inactive"}
{"Gene": "FBH1", "migration robust z-score": 1.06, "nuclei per well, duplicate mean": 5417, "Outcome": "inactive"}
{"Gene": "SPRR4", "migration robust z-score": -0.5, "nuclei per well, duplicate mean": 5674, "Outcome": "inactive"}

Already shown: entries from further up.
{"Gene": "GOLPH3L", "migration robust z-score": 1.19, "nuclei per well, duplicate mean": 5523, "Outcome": "inactive"}
{"Gene": "FBH1", "migration robust z-score": 1.06, "nuclei per well, duplicate mean": 5417, "Outcome": "inactive"}

More reagents:
{"Gene": "SHOX", "migration robust z-score": 0.42, "nuclei per well, duplicate mean": 6012, "Outcome": "inactive"}
{"Gene": "DEFB130A", "migration robust z-score": -0.18, "nuclei per well, duplicate mean": 6662, "Outcome": "inactive"}
{"Gene": "AKR1C4", "migration robust z-score": 0.1, "nuclei per well, duplicate mean": 7166, "Outcome": "inactive"}
{"Gene": "PITPNB", "migration robust z-score": 0.16, "nuclei per well, duplicate mean": 5319, "Outcome": "inactive"}
{"Gene": "SMARCA1", "migration robust z-score": -0.39, "nuclei per well, duplicate mean": 5058, "Outcome": "inactive"}
{"Gene": "ARFIP2", "migration robust z-score": 0.48, "nuclei per well, duplicate mean": 5819, "Outcome": "inactive"}
{"Gene": "F2RL2", "migration robust z-score": 1.09, "nuclei per well, duplicate mean": 6432, "Outcome": "inactive"}
{"Gene": "KCNK1", "migration robust z-score": -2.05, "nuclei per well, duplicate mean": 3804, "Outcome": "active"}
{"Gene": "OR51B6", "migration robust z-score": 0.82, "nuclei per well, duplicate mean": 5482, "Outcome": "inactive"}
{"Gene": "LINC02875", "migration robust z-score": 0.32, "nuclei per well, duplicate mean": 5278, "Outcome": "inactive"}
{"Gene": "SEZ6L2", "migration robust z-score": -0.62, "nuclei per well, duplicate mean": 5840, "Outcome": "inactive"}
